# Results from article PMC2730569.
# Results are given in words; binding and its absence hold for the method and conditions named. Binding seen in cells or lysates may run through a third protein. Binding calls can cover weak binding; strength is not graded here. Where a sequence is shown, tags or fusion partners need not be part of it.
# B1: Egg fragment aa 366-521 fused to HA (domain or fragment, UniProt Q32KD2 366-521)
# chain: EDELDDAIKNVLNKVDFTAQLSWSKTILQAKADHLERQFALADVELEKVQTTADKMHCALYNSCPVAHKHLPTLDIEPSDYVHEVPPPGEIVRPPIQLGETYYAVKNKAIASWVSIKVIEFTESTAINGNTMKSYKIRYLNTPYQMIKTVTAKHIA
# B2: POF-HA (full length Painting of fourth fused to HA) (protein, UniProt Q9W123 1-495)
# chain: MDSKRAALESGDGPDAKRLDTTDDQDKEASGGDGSQVMLAKHVAPYTGHGCTPPMESYLFEPTPAGSQLLPWKTSVDLDNDAELEKPTSDKKPDTAKLSRRELAKMRREHTLRALALERELTNKPGQTPASEVLLVRFPDPEITAPMLAGLSKDIRDVVLPISVAPRYCLVHLKAGADVEATICDINRVRFGTGHLRAELKPFSDEEQAEFIDPCSLYVGNIPFNMTTSAIKAYFANAMRVDIGVLKREKRARYAFVRYASPDQTMEAFKELVDSPLNSRTLTVRYRRLRKRAGMPMVQCATSFQALQSPNGDDDNTDCKVISPPPLESIIISDSDNCSDSSGNGKEDGKRKKKINEQEREIEKLKRQMAEYGAIIKSLQFRQNSLEDTFIPDLTPKVEPSVNPTGCLLGSNAVHLMRDIKKECDYLGIPDPVPATKPTTQAQDDSQKKAKRSCFGRLFTGPFRRGTSAMKTADEYEKDDRLEELYAQLERDPDP
# Experiments:
# [1] = target: Wde-3-GFP (fragment of Wde containing the coiled-coil region) (Drosophila); experiment: co-IP; S2 cells cotransfected with Wde-3-GFP and Egg deletion constructs fused to HA; IP with anti GFP antibody, anti beta-Galactosidase as control; lysate in TNT buffer
# [2] = target: GFP-Wde-1 (full length Windei fused to GFP) (Drosophila); experiment: co-IP; S2 cells cotransfected with GFP-Wde-1 and POF-HA; IP with anti GFP according to the text, with anti Wde antiserum (preimmune serum as control) according to the legend; blots with anti HA and anti GFP; lysate in TNT buffer
Binder,binding [1],binding [2]
B1,binds,
B2,,binds
